No constants are given. Whether binding was seen depends on the method and setting. Binding seen in cells or lysates may run through a third protein. Some entries that bind do so weakly or less than the wild type. For part of these data: Tags and fused reporters may be left off the sequences shown.

Protein sequences, listed by entry. Tags and fused reporters are not part of them. Lines headed by an entry give the natural chain unless they say otherwise; changes in a name come on top.
UniProt P42227: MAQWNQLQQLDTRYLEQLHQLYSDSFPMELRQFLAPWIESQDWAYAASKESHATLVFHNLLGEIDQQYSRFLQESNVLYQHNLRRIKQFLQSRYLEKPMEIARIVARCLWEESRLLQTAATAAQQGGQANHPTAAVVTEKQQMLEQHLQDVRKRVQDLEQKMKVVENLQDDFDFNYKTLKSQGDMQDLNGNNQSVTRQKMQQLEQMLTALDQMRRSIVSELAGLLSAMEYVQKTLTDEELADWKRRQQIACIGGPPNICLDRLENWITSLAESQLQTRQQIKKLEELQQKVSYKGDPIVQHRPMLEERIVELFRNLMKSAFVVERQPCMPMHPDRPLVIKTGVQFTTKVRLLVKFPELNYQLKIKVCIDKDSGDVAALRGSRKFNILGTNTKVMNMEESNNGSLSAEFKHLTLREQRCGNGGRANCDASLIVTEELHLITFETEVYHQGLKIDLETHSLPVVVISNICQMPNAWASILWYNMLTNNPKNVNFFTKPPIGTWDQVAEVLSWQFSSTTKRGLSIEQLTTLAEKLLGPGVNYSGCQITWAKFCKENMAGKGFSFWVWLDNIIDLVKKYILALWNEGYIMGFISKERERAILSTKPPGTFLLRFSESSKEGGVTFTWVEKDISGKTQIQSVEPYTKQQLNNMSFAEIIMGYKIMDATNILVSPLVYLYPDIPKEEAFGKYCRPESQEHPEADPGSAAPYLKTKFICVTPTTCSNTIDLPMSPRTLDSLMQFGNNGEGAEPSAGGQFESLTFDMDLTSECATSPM
UniProt P40763: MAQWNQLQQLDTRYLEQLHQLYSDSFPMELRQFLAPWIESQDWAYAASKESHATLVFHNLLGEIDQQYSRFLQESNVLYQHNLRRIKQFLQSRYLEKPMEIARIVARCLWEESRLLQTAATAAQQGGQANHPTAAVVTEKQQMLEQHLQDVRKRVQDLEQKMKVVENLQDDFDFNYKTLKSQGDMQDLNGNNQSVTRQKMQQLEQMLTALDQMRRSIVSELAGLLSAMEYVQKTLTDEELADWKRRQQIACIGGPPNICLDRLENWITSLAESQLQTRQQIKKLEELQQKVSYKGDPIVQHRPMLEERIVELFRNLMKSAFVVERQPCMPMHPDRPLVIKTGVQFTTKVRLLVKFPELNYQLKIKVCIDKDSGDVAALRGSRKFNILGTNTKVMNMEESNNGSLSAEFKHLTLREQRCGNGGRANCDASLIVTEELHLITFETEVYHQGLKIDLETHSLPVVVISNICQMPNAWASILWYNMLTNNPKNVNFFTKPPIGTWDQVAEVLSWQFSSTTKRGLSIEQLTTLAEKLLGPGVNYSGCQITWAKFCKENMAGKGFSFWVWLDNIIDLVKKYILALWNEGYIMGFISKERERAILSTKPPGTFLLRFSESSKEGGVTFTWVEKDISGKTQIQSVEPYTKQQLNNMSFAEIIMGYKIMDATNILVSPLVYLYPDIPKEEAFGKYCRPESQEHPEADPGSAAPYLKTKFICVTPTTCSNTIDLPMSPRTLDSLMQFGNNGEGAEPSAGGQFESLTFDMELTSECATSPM
UniProt P70365: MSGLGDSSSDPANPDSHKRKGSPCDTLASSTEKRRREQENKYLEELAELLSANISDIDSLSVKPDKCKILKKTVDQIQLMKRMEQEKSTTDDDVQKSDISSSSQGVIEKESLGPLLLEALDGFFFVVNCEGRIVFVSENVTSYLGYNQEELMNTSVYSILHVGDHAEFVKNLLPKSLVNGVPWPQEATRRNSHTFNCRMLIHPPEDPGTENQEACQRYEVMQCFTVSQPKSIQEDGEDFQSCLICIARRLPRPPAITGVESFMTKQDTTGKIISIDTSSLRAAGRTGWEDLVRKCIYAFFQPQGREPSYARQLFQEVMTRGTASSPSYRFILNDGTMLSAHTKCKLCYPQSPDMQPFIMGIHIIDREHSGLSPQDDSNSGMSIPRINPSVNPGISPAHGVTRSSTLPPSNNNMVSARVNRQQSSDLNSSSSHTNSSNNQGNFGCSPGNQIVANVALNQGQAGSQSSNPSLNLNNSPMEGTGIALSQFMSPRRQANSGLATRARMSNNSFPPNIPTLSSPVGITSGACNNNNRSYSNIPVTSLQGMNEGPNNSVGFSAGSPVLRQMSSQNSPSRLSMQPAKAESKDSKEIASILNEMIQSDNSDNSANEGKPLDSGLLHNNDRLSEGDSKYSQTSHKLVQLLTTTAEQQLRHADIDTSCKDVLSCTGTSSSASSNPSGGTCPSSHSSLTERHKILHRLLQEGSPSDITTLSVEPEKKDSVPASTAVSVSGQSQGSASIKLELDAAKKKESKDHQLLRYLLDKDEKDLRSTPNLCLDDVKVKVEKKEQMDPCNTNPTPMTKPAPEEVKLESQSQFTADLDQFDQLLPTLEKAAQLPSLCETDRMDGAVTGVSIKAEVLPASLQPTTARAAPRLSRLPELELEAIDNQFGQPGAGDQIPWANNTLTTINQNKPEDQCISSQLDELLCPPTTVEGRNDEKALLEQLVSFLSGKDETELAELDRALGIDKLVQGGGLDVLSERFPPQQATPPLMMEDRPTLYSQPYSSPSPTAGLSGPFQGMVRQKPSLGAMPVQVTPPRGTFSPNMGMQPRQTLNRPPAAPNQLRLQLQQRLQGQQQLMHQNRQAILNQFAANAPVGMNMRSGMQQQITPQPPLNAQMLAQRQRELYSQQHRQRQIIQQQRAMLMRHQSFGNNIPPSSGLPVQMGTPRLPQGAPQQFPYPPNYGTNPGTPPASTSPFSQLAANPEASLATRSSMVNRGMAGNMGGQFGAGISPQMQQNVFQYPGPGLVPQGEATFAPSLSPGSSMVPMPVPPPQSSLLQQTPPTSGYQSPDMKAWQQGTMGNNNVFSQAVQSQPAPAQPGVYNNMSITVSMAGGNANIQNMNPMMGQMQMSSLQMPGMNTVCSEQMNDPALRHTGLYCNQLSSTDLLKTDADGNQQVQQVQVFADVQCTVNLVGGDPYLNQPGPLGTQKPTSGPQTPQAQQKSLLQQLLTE
UniProt Q15788: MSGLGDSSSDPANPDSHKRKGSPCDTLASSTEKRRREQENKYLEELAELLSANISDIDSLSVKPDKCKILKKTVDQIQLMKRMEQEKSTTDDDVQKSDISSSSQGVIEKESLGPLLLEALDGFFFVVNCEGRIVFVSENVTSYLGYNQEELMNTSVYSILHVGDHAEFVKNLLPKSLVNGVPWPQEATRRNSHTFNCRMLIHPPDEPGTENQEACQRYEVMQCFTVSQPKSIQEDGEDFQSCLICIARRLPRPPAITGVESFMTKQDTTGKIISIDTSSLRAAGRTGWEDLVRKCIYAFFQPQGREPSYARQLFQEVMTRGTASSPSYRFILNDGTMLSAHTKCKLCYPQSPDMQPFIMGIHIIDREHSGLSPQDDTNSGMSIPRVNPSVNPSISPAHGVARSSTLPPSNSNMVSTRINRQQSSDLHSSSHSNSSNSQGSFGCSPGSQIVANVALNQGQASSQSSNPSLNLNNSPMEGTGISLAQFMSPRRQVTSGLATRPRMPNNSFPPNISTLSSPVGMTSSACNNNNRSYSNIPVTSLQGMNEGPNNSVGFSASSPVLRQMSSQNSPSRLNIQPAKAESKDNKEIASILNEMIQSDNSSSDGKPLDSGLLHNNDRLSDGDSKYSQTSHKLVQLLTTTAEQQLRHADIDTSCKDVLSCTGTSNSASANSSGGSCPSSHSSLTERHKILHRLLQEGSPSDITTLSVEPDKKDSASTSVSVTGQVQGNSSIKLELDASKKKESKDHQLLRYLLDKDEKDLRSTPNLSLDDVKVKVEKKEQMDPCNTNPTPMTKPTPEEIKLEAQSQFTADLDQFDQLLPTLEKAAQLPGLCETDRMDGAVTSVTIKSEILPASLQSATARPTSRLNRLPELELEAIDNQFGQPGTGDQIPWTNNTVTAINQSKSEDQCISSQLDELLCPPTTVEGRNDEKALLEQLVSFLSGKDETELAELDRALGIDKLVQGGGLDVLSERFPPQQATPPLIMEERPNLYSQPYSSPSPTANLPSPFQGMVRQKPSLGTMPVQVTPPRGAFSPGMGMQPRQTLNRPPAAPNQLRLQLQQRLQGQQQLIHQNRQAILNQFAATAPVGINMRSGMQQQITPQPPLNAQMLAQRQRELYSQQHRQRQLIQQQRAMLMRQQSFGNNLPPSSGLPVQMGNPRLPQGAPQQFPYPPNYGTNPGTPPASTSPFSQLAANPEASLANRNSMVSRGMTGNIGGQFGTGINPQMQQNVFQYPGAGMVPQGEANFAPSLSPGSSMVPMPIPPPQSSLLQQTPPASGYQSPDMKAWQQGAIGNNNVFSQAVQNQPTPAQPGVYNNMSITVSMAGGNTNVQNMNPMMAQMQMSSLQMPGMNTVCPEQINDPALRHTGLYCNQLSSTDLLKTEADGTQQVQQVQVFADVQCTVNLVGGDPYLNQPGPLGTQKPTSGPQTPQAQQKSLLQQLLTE

Assay [1] concerns the target phosphorylated STAT3 (pSTAT3), endogenous in mouse hypothalamus (mouse (endogenous in hypothalamus)) (UniProt P42227). In words: co-IP; hypothalamus lysates of C57Bl6 wild type mice, time course after i.p. leptin (5 mg/kg); anti-Phospho-STAT3 (Tyr705) sepharose beads or anti-SRC-1 (128E7) with Protein A/G agarose; immunoblot; lysis buffer 50 mM Tris-HCl pH 8.0, 50 mM KCl, 5 mM EDTA, 0.5% Nonidet P-40. On the technique in general: A western blot detects proteins with antibodies after separation by electrophoresis.

The target of assay [2] is phosphorylated human STAT3 (pSTAT3), Flag-tagged (human) (UniProt P40763). In words: co-IP; HEK293 cells co-transfected with leptin receptor, STAT3 and mutant SRC-1 vector (or empty vector), leptin 200 ng/ml 15 min; anti-pSTAT3 pull-down from lysate, blot with anti-SRC-1 (total SRC-1).
Assay [3] deals with T1, Flag-tagged human thyroid hormone receptor-β (human) (UniProt P10828).
T1 sequence: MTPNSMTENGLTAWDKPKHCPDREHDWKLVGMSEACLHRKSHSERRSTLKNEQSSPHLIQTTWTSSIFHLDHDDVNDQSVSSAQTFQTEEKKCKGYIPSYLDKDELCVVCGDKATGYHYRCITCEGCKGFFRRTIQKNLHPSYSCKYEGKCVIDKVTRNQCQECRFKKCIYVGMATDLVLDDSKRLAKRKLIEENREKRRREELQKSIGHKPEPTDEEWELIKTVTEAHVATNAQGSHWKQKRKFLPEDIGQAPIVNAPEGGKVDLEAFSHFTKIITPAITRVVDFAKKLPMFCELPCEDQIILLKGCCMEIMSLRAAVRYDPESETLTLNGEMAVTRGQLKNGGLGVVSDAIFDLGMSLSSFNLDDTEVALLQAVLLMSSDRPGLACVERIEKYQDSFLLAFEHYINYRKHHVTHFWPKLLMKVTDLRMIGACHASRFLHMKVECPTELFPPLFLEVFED
In words: co-IP; equal amounts of total protein of SRC-1 WT or mutant lysates incubated with equal volumes of Flag-THRβ lysate overnight at 4 °C with 1 μM T3; anti-Flag beads 1 h, 6 washes; Western blot.

The target in assay [4] is phosphorylated human STAT3 (pSTAT3), Flag-tagged (human) (UniProt P40763). Nature of the assay: co-IP; pSTAT3 from leptin-treated HEK293 lysate held on anti-phospho-STAT3 sepharose beads (4 h, 4 °C), washed, aliquoted equally and incubated overnight with comparable amounts of SRC-1-HA (WT or mutant) in HEK293 lysate; blot with anti-HA; only the target purified.
Assay [5] has as its target T2, Flag-tagged human vitamin D receptor (human) (UniProt P11473).
T2 sequence: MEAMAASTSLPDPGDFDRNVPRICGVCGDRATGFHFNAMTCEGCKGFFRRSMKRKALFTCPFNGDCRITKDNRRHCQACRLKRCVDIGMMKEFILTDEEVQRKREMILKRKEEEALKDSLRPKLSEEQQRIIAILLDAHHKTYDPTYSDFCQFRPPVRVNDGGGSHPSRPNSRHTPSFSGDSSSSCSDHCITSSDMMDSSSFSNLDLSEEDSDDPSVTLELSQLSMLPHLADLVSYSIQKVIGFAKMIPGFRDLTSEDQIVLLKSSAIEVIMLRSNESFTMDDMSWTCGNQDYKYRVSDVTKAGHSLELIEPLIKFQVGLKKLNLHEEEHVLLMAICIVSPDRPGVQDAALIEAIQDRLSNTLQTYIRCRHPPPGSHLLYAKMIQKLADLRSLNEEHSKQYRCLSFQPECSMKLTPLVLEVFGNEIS
Nature of the assay: co-IP; Flag-tagged receptor from ligand-treated HEK293 lysate (17β-estradiol, calcitriol, dexamethasone or rosiglitazone, 30 min) held on anti-Flag beads (4 h, 4 °C), washed, aliquoted equally and incubated overnight with comparable amounts of SRC-1 (WT or mutant) in HEK293 lysate; Western blot; only the target purified.

In the case of “SRC-1, endogenous in mouse hypothalamus (from UniProt P70365 1-1447)”, the binding entry in assay [1] is given as “binds”.

In the case of “endogenous SRC-1 of HEK293 cells (WT SRC-1; detected as total SRC-1) (from UniProt Q15788 1-1441)”, the binding entry in assay [2] is given as “binds”.

For “long isoform of human SRC-1-HA (WT) (from UniProt Q15788 1-1441)”, the binding result in assay [3], in assay [4] and in assay [5] was “binds” in each case.

In the case of “long isoform of human SRC-1-HA, S738L (from UniProt Q15788 1-1441)”, in assay [4], the binding entry is listed as “binds”.

Source of the values: paper PMC6461669.
